These are yes or no findings as the source states them, for the method shown. A result given as binding can be weak or reduced; the word gives no strength. Where a sequence is shown, tags or fusion partners need not be part of it.
Columns and labels:
[1] = molecular target: human FGF19 (R23 to K216), FGF19^23-216 (human) (UniProt O95750); assay: SPR, FGF19^23-216 immobilized, 10 nM βKlotho ectodomain injected
[2] = molecular target: human FGF21 (H29 to S209), FGF21^29-209 (human) (UniProt Q9NSA1); assay: SPR, FGF21^29-209 immobilized, 10 nM βKlotho ectodomain injected
[3] = molecular target: human FGF19 (R23 to K216), FGF19^23-216 (human) (UniProt O95750); assay: SPR; FGF19^23-216 immobilized, βKlotho ectodomain injected with FGF23^180-251 (2:1)
[4] = molecular target: human FGF21 (H29 to S209), FGF21^29-209 (human) (UniProt Q9NSA1); assay: SPR; FGF21^29-209 immobilized, βKlotho ectodomain injected with FGF23^180-251 (2:1)

Chains of the proteins cited; added tags and fusions are not shown. Lines headed by an entry give the natural chain unless they say otherwise; changes in a name come on top.
UniProt O95750: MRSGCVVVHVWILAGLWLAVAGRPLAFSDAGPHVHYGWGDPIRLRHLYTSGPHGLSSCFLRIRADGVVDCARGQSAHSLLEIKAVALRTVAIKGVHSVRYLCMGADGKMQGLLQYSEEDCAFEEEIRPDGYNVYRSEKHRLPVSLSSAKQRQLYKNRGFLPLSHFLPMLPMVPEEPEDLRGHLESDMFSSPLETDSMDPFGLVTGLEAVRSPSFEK
UniProt Q9NSA1: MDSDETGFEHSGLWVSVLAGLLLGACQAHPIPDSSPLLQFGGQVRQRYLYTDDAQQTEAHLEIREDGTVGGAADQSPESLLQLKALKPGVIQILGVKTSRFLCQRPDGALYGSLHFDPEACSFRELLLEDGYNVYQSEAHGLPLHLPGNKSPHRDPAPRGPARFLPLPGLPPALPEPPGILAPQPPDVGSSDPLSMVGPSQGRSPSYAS

Measured: binding

B1: ectodomain of murine βKlotho (F53 to L995) with C-terminal FLAG tag (receptor, UniProt Q99N32 53-995, looked up, not shown: small tags and cut ends)
chain: FSGDGKAIWDKKQYVSPVNPSQLFLYDTFPKNFSWGVGTGAFQVEGSWKTDGRGPSIWDRYVYSHLRGVNGTDRSTDSYIFLEKDLLALDFLGVSFYQFSISWPRLFPNGTVAAVNAQGLRYYRALLDSLVLRNIEPIVTLYHWDLPLTLQEEYGGWKNATMIDLFNDYATYCFQTFGDRVKYWITIHNPYLVAWHGFGTGMHAPGEKGNLTAVYTVGHNLIKAHSKVWHNYDKNFRPHQKGWLSITLGSHWIEPNRTDNMEDVINCQHSMSSVLGWFANPIHGDGDYPEFMKTGAMIPEFSEAEKEEVRGTADFFAFSFGPNNFRPSNTVVKMGQNVSLNLRQVLNWIKLEYDDPQILISENGWFTDSYIKTEDTTAIYMMKNFLNQVLQAIKFDEIRVFGYTAWTLLDGFEWQDAYTTRRGLFYVDFNSEQKERKPKSSAHYYKQIIQDNGFPLKESTPDMKGRFPCDFSWGVTESVLKPEFTVSSPQFTDPHLYVWNVTGNRLLYRVEGVRLKTRPSQCTDYVSIKKRVEMLAKMKVTHYQFALDWTSILPTGNLSKVNRQVLRYYRCVVSEGLKLGVFPMVTLYHPTHSHLGLPLPLLSSGGWLNMNTAKAFQDYAELCFRELGDLVKLWITINEPNRLSDMYNRTSNDTYRAAHNLMIAHAQVWHLYDRQYRPVQHGAVSLSLHCDWAEPANPFVDSHWKAAERFLQFEIAWFADPLFKTGDYPSVMKEYIASKNQRGLSSSVLPRFTAKESRLVKGTVDFYALNHFTTRFVIHKQLNTNRSVADRDVQFLQDITRLSSPSRLAVTPWGVRKLLAWIRRNYRDRDIYITANGIDDLALEDDQIRKYYLEKYVQEALKAYLIDKVKIKGYYAFKLTEEKSKPRFGFFTSDFRAKSSVQFYSKLISSSGLPAENRSPACGQPAEDTDCTICSFLVEKKPL
binds: all assays above

From US20130184211A1
